Measured values: US20180118699A1, “SK AND IK CHANNEL AGONISTS FOR TREATMENT OF HEART FAILURE” (THE TRUSTEES OF COLUMBIA UNIVERSITY IN THE CITY OF NEW YORK, priority 2015, published 2018)
For at least one compound, name, drawing or mass did not settle the structure.

The chains behind the UniProt entries cited, without tags or fusion partners. Where a name states a change or a piece, a line headed by the entry shows the natural chain unless it says otherwise.
UniProt Q08460: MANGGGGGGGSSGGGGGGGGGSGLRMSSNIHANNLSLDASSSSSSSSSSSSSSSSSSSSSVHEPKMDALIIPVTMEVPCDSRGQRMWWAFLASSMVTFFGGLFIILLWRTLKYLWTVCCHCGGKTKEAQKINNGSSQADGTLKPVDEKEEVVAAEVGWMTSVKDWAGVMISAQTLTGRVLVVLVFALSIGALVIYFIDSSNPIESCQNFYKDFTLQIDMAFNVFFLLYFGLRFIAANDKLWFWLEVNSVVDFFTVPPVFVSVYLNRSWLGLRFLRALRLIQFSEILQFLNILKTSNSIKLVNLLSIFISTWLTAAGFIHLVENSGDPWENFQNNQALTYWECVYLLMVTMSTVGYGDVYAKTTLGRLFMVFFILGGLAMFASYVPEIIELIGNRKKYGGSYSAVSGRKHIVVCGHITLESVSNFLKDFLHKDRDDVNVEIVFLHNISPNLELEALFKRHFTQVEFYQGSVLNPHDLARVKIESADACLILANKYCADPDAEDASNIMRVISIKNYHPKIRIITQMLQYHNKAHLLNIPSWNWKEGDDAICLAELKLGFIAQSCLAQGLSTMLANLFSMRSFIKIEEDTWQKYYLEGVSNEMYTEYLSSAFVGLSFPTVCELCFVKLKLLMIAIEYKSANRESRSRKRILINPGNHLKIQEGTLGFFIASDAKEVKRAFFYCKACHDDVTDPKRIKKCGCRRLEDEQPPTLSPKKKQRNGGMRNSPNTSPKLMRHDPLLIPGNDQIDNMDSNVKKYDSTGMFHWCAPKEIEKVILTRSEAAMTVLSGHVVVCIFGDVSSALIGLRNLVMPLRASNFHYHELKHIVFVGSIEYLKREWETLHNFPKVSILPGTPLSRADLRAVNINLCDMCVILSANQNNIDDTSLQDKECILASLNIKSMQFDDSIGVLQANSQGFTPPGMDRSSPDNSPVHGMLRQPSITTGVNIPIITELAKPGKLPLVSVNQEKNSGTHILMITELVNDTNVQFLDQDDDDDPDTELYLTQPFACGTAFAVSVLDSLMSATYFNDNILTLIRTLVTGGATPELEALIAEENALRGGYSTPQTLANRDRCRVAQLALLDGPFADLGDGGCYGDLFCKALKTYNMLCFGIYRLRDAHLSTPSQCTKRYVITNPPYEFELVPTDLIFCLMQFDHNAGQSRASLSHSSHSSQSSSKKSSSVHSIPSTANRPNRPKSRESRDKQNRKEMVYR

Key:
[1] = test system: mesenteric resistance vessels; experiment: Dilation of cannulated mesenteric resistance vessels; settings: intraluminal 1 μM TRAM-34 and 100 nM apamin together; phenylephrine-constricted vessels
[2] = biological target: T1, BK channels (Mus musculus, UniProt Q08460); experiment: Whole cell K+ currents in freshly isolated mesenteric VSM cells; assay type: cell-based, mice; settings: 1 μM paxilline, 9 μM Ca2+ in pipette
T1 construct: from tissue; host or cells: third-order mesenteric resistance arteries of mice (sham and heart failure)
Method: Whole cell K^+ currents at baseline (black trace) and after exposure to 1 μM paxilline (red trace in FIG. 14A) or 2 μM Ang II (blue trace in FIG. 14B). The intrapipette solution contained 9 μM Ca^2+.
Conversely, Ang II (2 μM) or phenylephrine (10 μM) may differentially modulate channel function in VSM cells isolated from HF mice. Ang II inhibits BK channel function through its effects on PKC, c-Src and Nox (Lu et al. 2010). Ang II causes less inhibition if BK channels are already modified by PKC, c-Src or Nox pathways, as compared to the effect on BK channels from control VSM cells, in which Ang II suppressed BK current by 50% (see FIG. 14B).
Two determinants of BK activity are used: STOCs and whole-cell current density. BK currents are a very large fraction of the total K^+ currents in freshly isolated mesenteric VSM cells (see FIG. 14A). […] PKCα and PKCδ may be the relevant PKC isoforms, which are further delineated using specific inhibitors.

Question: Which “effect on SKA-31 (1 μM)-mediated vasodilation” value [1] does the source give for `CC(C)C[C@@H]1NC(=O)[C@H](C)NC(=O)[C@H]([C@@H](C)O)NC(=O)[C@H](CCC(=O)O)NC(=O)[C@@H]2CCCN2C(=O)[C@H](C)NC(=O)[C@H](CCCCN)NC(=O)[C@@H]2CSSC[C@@H](C(=O)N[C@@H](CCC(N)=O)C(=O)N[C@@H](CCC(N)=O)C(=O)N[C@@H](Cc3cnc[nH]3)C(N)=O)NC(=O)[C@H](CCCNC(=N)N)NC(=O)[C@H](CCCNC(=N)N)NC(=O)[C@H](C)NC(=O)[C@H](CSSC[C@H](N)C(=O)N[C@@H](CC(N)=O)C(=O)N2)NC1=O` [apamin] here?
Answer: The value was “prevented”.

Question: With `CC(C)(O)[C@H]1O[C@H]2CC[C@@]3(C)[C@@](O)(CC[C@H]4Cc5c([nH]c6ccccc56)[C@@]43C)C2=CC1=O` [paxilline] as the molecule, how does the “effect on BK currents” value [2] read?
Answer: The value was “inhibition of BK currents”.
